# Article PMC4511362
# No constants are given. Whether binding was seen depends on the method and setting. In cells and extracts the contact can be indirect. Some binding calls cover weakened binding; strength is not graded here.
# T1: Protein kinase C (PKC) zeta, endogenous in HeLa cells (human (endogenous in HeLa)) (UniProt Q05513)
# T1 sequence: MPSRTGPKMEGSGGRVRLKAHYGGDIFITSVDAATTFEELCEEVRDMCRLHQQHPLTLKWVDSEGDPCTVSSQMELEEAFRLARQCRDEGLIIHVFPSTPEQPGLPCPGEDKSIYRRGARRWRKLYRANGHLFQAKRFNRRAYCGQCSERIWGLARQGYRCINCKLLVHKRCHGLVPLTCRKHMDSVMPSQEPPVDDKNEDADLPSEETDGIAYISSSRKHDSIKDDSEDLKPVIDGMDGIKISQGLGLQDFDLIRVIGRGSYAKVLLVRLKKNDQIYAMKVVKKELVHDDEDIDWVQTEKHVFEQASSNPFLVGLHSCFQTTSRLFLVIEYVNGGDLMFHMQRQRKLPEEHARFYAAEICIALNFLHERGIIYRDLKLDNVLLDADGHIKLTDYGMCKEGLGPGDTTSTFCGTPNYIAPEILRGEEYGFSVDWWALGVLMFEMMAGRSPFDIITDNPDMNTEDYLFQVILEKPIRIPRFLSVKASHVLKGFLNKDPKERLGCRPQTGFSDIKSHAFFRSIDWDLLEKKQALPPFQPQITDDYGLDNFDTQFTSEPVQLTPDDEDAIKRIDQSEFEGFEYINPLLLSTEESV
# T2: Leucocyte elastase inhibitor (LEI), endogenous in HeLa cells (human (endogenous in HeLa)) (UniProt P30740)
# T2 sequence: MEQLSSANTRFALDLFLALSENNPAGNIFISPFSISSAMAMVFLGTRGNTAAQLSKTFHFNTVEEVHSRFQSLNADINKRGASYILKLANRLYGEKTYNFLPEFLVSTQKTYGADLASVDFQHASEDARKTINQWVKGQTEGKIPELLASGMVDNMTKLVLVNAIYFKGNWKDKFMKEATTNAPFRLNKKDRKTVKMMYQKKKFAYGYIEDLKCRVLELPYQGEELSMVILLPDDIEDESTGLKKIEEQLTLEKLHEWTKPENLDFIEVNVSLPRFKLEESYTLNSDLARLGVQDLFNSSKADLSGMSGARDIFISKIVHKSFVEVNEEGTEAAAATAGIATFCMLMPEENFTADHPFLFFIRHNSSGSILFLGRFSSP
# Experiments:
# [1] = target: T1, Protein kinase C (PKC) zeta, endogenous in HeLa cells (human (endogenous in HeLa)); experiment: co-IP; ProFound Mammalian Co-Immunoprecipitation Kit; crude extracts of HeLa (100 ug) and BHK cells precipitated with anti-PKC zeta or anti-LEI; blots with anti-PKC zeta or anti-LEI; column without IgG as control
# [2] = target: T2, Leucocyte elastase inhibitor (LEI), endogenous in HeLa cells (human (endogenous in HeLa)); experiment: as above
binding [1],binding [2],Binder
binds,,"Leucocyte elastase inhibitor (LEI), endogenous in HeLa cells (protein, UniProt P30740 1-379) MEQLSSANTRFALDLFLALSENNPAGNIFISPFSISSAMAMVFLGTRGNTAAQLSKTFHFNTVEEVHSRFQSLNADINKRGASYILKLANRLYGEKTYNFLPEFLVSTQKTYGADLASVDFQHASEDARKTINQWVKGQTEGKIPELLASGMVDNMTKLVLVNAIYFKGNWKDKFMKEATTNAPFRLNKKDRKTVKMMYQKKKFAYGYIEDLKCRVLELPYQGEELSMVILLPDDIEDESTGLKKIEEQLTLEKLHEWTKPENLDFIEVNVSLPRFKLEESYTLNSDLARLGVQDLFNSSKADLSGMSGARDIFISKIVHKSFVEVNEEGTEAAAATAGIATFCMLMPEENFTADHPFLFFIRHNSSGSILFLGRFSSP"
,binds,"Protein kinase C (PKC) zeta, endogenous in HeLa cells (enzyme, UniProt Q05513 1-592) MPSRTGPKMEGSGGRVRLKAHYGGDIFITSVDAATTFEELCEEVRDMCRLHQQHPLTLKWVDSEGDPCTVSSQMELEEAFRLARQCRDEGLIIHVFPSTPEQPGLPCPGEDKSIYRRGARRWRKLYRANGHLFQAKRFNRRAYCGQCSERIWGLARQGYRCINCKLLVHKRCHGLVPLTCRKHMDSVMPSQEPPVDDKNEDADLPSEETDGIAYISSSRKHDSIKDDSEDLKPVIDGMDGIKISQGLGLQDFDLIRVIGRGSYAKVLLVRLKKNDQIYAMKVVKKELVHDDEDIDWVQTEKHVFEQASSNPFLVGLHSCFQTTSRLFLVIEYVNGGDLMFHMQRQRKLPEEHARFYAAEICIALNFLHERGIIYRDLKLDNVLLDADGHIKLTDYGMCKEGLGPGDTTSTFCGTPNYIAPEILRGEEYGFSVDWWALGVLMFEMMAGRSPFDIITDNPDMNTEDYLFQVILEKPIRIPRFLSVKASHVLKGFLNKDPKERLGCRPQTGFSDIKSHAFFRSIDWDLLEKKQALPPFQPQITDDYGLDNFDTQFTSEPVQLTPDDEDAIKRIDQSEFEGFEYINPLLLSTEESV"
